# Assay results: PubChem BioAssay (Tox21)
# Protein sequences, listed by entry. Tags and fused reporters are not part of them. Lines headed by an entry give the natural chain unless they say otherwise; changes in a name come on top.
# UniProt P28223, whole entry, looked up: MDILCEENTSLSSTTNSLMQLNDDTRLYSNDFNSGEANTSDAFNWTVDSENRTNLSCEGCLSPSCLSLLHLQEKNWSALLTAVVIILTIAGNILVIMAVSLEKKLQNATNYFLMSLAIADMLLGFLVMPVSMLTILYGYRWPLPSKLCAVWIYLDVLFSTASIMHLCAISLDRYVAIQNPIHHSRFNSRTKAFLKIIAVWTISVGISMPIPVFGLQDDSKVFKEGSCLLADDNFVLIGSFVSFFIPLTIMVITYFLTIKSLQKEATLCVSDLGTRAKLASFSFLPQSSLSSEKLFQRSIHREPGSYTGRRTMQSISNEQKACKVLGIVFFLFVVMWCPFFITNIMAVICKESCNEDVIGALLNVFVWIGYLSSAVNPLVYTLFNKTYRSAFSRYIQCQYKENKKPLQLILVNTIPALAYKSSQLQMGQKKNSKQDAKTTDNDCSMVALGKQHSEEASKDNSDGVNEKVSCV
# UniProt P11229: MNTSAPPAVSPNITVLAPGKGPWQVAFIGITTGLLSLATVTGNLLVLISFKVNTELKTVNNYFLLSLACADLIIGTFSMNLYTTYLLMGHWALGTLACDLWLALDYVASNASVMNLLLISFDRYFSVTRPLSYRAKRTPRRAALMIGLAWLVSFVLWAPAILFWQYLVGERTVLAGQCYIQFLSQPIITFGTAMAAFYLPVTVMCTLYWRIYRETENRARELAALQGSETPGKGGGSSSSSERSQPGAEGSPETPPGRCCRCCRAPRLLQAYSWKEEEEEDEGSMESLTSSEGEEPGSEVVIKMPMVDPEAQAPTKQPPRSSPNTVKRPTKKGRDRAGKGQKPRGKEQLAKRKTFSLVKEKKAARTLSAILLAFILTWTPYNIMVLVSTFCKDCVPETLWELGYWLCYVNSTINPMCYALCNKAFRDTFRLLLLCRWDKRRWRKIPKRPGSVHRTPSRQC
# UniProt P14416, whole entry, looked up: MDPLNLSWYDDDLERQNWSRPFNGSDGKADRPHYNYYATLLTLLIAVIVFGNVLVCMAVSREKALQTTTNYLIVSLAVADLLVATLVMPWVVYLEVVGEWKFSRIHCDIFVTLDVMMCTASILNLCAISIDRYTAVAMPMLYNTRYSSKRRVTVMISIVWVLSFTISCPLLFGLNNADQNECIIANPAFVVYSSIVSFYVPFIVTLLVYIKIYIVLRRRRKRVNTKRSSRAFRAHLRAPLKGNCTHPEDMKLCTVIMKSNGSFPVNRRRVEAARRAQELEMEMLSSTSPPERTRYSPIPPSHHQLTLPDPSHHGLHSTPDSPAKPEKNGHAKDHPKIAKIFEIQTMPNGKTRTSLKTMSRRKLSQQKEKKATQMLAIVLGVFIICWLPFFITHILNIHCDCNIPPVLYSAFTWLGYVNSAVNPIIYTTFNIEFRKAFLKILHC
# Where “and” joins values, the source holds several entries; their conditions need not be identical. Equal values may be shown once. Inconclusive means that the source gave no clear call. Such entries were picked first, then a sample of the others. For some assays here: A potency beside an inconclusive call is a rough fit, not a confirmed value. Calls of active or inactive are those of the source. Unless noted, calls follow the shape of the full dose curve.
# Tests used:
# [1] = Nuclear factor erythroid 2-related factor 2/antioxidant responsive element (Nrf2/ARE) small molecule agonists: luciferase reporter gene qHTS assay in human keratinocytes (AID 1919969); conditions: KeratinoSens HaCaT ARE-luciferase, luminescence, 24 h; activity, positive = activation: at 92.4 µM (top of the series); also: nearly all actives have a fitted effect of over 35% in size; also: potency is read from the fitted curve at half-maximal effect
# [2] = p53 small molecule agonists, cell-based qHTS assay with human liver microsomes (AID 1963577); conditions: HCT-116 p53RE-bla with human liver microsomes, ratio, 16 h; activation: at 66 µM (top of the series) unless noted; also: % is scaled to controls: 0 for no effect and ±100 for the full control effect
# In short: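 p53RE-bla cells, 4,000/well, compound added after 5 h, with human liver microsomes 0.5 mg/mL and NADPH 0.5 mg/mL final; 16 h at 37 C, then LiveBLAzer 2 h RT, fluorescence.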
# [3] = target: Beta-2 adrenergic receptor (Homo sapiens) (UniProt P07550); test: Adrenergic beta2 receptor (ADRB2) small molecule agonists, cell-based qHTS assay (AID 1963593); conditions: CHO-ADRB2 cells, cAMP HTRF, 30 min; activation: at 92.4 µM (top of the series) unless noted; also: potency is read from the fitted curve at half-maximal effect;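 as to activation: CHO cells stably overexpressing human ADRB2; % is scaled to controls: 0 for no effect and ±100 for the full control effect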
# In short: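 CHO cells stably over-expressing ADRB2 were plated overnight at 37C, then dosed with compounds plus a stimulation mix containing 100uM IBMX and 25uM Ro-20-1724 for 0.5hr at room temperature. cAMP was measured by HTRF competition, 1hr.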
# [4] = cAMP Responsive Elements (CRE) small molecule agonists, cell-based qHTS assay (AID 1963590); conditions: CRE-bla HEK293T, beta-lactamase FRET ratio, 3 h; activation: at 92.4 µM (top of the series) unless noted; also: potency is read from the fitted curve at half-maximal effect
# In short: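 HEK 293T cells stably bearing CRE-bla were plated at 2,000 cells per well and rested 18 h. Compounds, positive controls or DMSO were added for 3 h at 37 C. LiveBLAzer B/G substrate was then loaded for 2 h at room temperature.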
# [5] = p53 small molecule agonists, cell-based qHTS assay with human liver microsomes: qHTS cell viability counter screen (AID 1963579); also: potency is read from the fitted curve at half-maximal effect; nearly all actives have a fitted effect of over 45% in size
# In short: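 p53RE-bla cells, 4,000/well, dosed 5 hours after plating, with human liver microsomes (0.5 mg/mL final) plus NADPH (0.5 mg/mL final), 16 hours at 37 C. Viability read as CellTiter-Glo luminescence after 30 min at room temperature.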
# [6] = p53 small molecule agonists, cell-based qHTS assay with rat liver microsomes: qHTS cell viability counter screen (AID 1963580); also: nearly all actives have a fitted effect of over 45% in size; also: potency is read from the fitted curve at half-maximal effect
# In short: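 Cytotoxicity counter screen: intracellular ATP read by CellTiter-Glo luminescence in the p53 reporter wells. HCT-116 p53RE-bla cells were treated for 16 h at 37 C alongside rat liver microsomes and NADPH, each 0.5 mg/mL final.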
# [7] = cAMP Responsive Elements (CRE) small molecule antagonists, cell-based qHTS assay (AID 1963591; active = well fitted inhibition curve with a large enough effect in the signal ratio in the repeat runs, not every such curve was filed as active; inconclusive = weak or mixed curves, or effect the other way; the % refers to the signal ratio; also: potency is read from the fitted curve at half-maximal effect); conditions: CRE-bla HEK293T, beta-lactamase FRET ratio; activity change, negative = inhibition: at 92.4 µM (top of the series) unless noted
# In short: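 First, CRE-bla HEK293T cells settled 18 h at 37 C. Next, compound and 0.25 uM final NKH477 were applied for 3 h. Last, LiveBLAzer B/G substrate was loaded for 2 h at room temperature.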
# [8] = p53 small molecule agonists, cell-based qHTS assay: qHTS cell viability counter screen (AID 1963581); also: potency is read from the fitted curve at half-maximal effect; nearly all actives have a fitted effect of over 45% in size
# In short: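 ATP content measured by luminescence in HCT-116 p53RE-bla cells treated 16 h at 37 C, same wells as the reporter screen.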
# [9] = p53 small molecule agonists, cell-based qHTS assay (AID 1963582; active = well fitted activation curve with a large enough effect in the signal ratio in the repeat runs, not every such curve was filed as active; inconclusive = weak or mixed curves; the % refers to the signal ratio; also: potency is read from the fitted curve at half-maximal effect); conditions: HCT-116 p53RE-bla reporter, beta-lactamase FRET ratio, 16 h; activation: at 66 µM (top of the series) unless noted
# In short: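 16 h compound exposure (37 C) of p53 response element–bla cells, preceded by 5 h recovery at 37 C/5% CO2; read-out via LiveBLAzer B/G FRET substrate, 2 h RT, fluorescence intensity.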
# [10] = target: 5-hydroxytryptamine receptor 2A (Homo sapiens) (UniProt P28223); test: 5-hydroxytryptamine receptor 2A (HTR2A) small molecule antagonists, cell-based qHTS assay (AID 1963586); also: potency is read from the fitted curve at half-maximal effect; nearly all actives have a fitted effect of over 45% in size
# In short: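 CHO cells stably expressing human HTR2A were plated for 18 h at 37 C, then loaded with calcium dye for 1 h. Compounds were preincubated 5 min at room temperature before DOI (4 nM solution) was added. Kinetic fluorescence was read for 3 min.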
# [11] = target: Muscarinic acetylcholine receptor M1 (Homo sapiens) (UniProt P11229); test: Cholinergic receptor muscarinic 1 (CHRM1) small molecule agonists, cell-based qHTS assay (AID 1963589); also: potency is read from the fitted curve at half-maximal effect; nearly all actives have a fitted effect of over 35% in size
# In short: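 Homogeneous fluorescence calcium flux, agonist mode. Human M1-expressing CHO cells; compound dosed at 15 concentrations, three independent runs; signal sampled every 1 sec.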
# [12] = target: Beta-2 adrenergic receptor (Homo sapiens) (UniProt P07550); test: Adrenergic beta2 receptor (ADRB2) small molecule antagonists, cell-based qHTS assay (AID 1963592); conditions: CHO-ADRB2 cells, isoproterenol-stimulated cAMP HTRF ratio, 0.5 h; also: % is scaled to controls: 0 for no effect and ±100 for the full control effect; nearly all actives have a fitted effect of over 50% in size
# In short: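 Assay format: CHO-ADRB2 cells, 18-20hr seeding at 37C/5% CO2, then compound plus 1nM isoproterenol agonist mix for 0.5hr RT. Homogeneous time-resolved fluorescence cAMP detection after 1hr, expressed as 665/615 nm ratio.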
# [13] = target: D(2) dopamine receptor (Homo sapiens) (UniProt P14416); test: Dopamine D2 receptor (DRD2) small molecule agonists, cell-based qHTS assay (AID 1963594); conditions: HEK293-DRD2 cAMP HTRF, agonist mode, 30 min; activation: at 92.4 µM (top of the series) unless noted; also: potency is read from the fitted curve at half-maximal effect; nearly all actives have a fitted effect of over 35% in size
# In short: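 cAMP accumulation in DRD2-HEK293 cells measured by HTRF after 1 h detection; compounds added 10 min before NKH477 (200nM […]) forskolin-analogue stimulation, 30 min at room temperature, with Ro20-1724 present at 0.1 mM final.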
# [14] = p53 small molecule agonists, cell-based qHTS assay with rat liver microsomes (AID 1963578); conditions: HCT-116 p53RE-bla, beta-lactamase ratio, 16 h; activation: at 66 µM (top of the series) unless noted; also: % is scaled to controls: 0 for no effect and ±100 for the full control effect
# In short: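 p53RE-bla cells, 4,000/well, pre-incubated 5 h, then given compounds plus rat liver microsomes (0.5 mg/mL final) and NADPH (0.5 mg/mL final). Incubation 16 h at 37 C; beta-lactamase reporter read by LiveBLAzer fluorescence after 2 h at room temperature.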
# [15] = target: Muscarinic acetylcholine receptor M1 (Homo sapiens) (UniProt P11229); test: Cholinergic receptor muscarinic 1 (CHRM1) small molecule antagonists, cell-based qHTS assay (AID 1963588); also: % is scaled to controls: 0 for no effect and ±100 for the full control effect; nearly all actives have a fitted effect of over 40% in size
# In short: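 Compounds were tested at 15 concentrations in three independent runs. Dye-loaded CHRM1-CHO cells were exposed 5 min at room temperature before stimulation by acetylcholine added at 50nM. Intracellular calcium was read kinetically on FDSS for 3 min.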
# [16] = target: D(2) dopamine receptor (Homo sapiens) (UniProt P14416); test: Dopamine D2 receptor (DRD2) small molecule antagonists, cell-based qHTS assay (AID 1963595; active = well fitted inhibition curve with a large enough effect in the signal ratio in the repeat runs, with a control signal flat; inconclusive = weak or mixed curves, or effect the other way; the % refers to the signal ratio; also: % is scaled to controls: 0 for no effect and ±100 for the full control effect); conditions: HEK293-DRD2 cAMP HTRF antagonist mode; activity change, negative = inhibition: at 92.4 µM (top of the series) unless noted
# In short: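 DRD2-HEK293; 0.1 mM Ro20-1724; cpd 10 min RT; NKH477 200 nM + quinpirole 12 nM, 30 min RT; HTRF cAMP (cAMP-d2/anti-cAMP cryptate), 665/620 nm ratio after 1 h.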
smiles,measurement,setting,value
Clc1ccc(C(Cn2ccnc2)OCc2ccc(Sc3ccccc3)cc2)c(Cl)c1 (configuration not stated),Potency,[1],"inconclusive: 33.5 µM [activator, single point]"
same,Potency,[2],inactive
same,Potency,[3],"inconclusive: 2980 nM [inhibitor, partial curve]"
CC(=O)Nc1ccc(/C=N/NC(N)=S)cc1,Potency,[1],"inconclusive: 33.5 µM [activator, single point]"
same,Potency,[2],inactive
same,Potency,[4],"inconclusive: 23.7 µM [rising, partial curve, poor fit]"
same,activation,[3],inconclusive: 4.96% [at 42.5 µM]
CCOc1ccc2c(c1)C(C)CC(C)(C)N2 (configuration not stated),Potency,[1],"inconclusive: 30.6 µM [activator, partial curve]"
same,Potency,[5],"inconclusive: 51.3 µM [cytotoxic, partial curve, poor fit]"
same,Potency,[6],"inconclusive: 51.3 µM [cytotoxic, single point]"
same,Potency,[7],"inconclusive: 68.6 µM [fluorescent, single point]"
same,activation,[3],inconclusive: 40.1%
c1ccc2occc2c1,Potency,[1],"inconclusive: 15.4 µM [activator, single point]"
same,Potency,[5],"inconclusive: 4.58 µM [cytotoxic, single point]"
same,Potency,[6],"inconclusive: 0.913 µM [cytotoxic, single point]"
same,Potency,[8],"inconclusive: 0.204 µM [rising, full curve, poor fit]"
same,Potency,[9],inconclusive: 32.4 µM [activator]
same,Potency,[10],active: 0.375 µM
same,Potency,[11],"inconclusive: 0.0174 µM [rising, full curve, poor fit]"
same,"activity change, negative = inhibition","[12]; activity change, negative = inhibition: at 92.4 µM (top of the series) unless noted",inconclusive: 6.66%
same,Potency,[3],"inconclusive: 969 nM [inhibitor, full curve, poor fit]"
same,Potency,[13],inconclusive: 18.2 µM
C[N+](C)(C)CCCCCCCCCC[N+](C)(C)C,Potency,[1],inactive
same,Potency,[14],inactive
same,Potency,[9],inactive
same,activation,[3],inconclusive: 12.1% [at 42.5 µM]
Oc1ccccc1-c1nnco1,Potency,[1],inconclusive: 33.5 µM [activator]
same,Potency,[14],inactive
same,activation,[3],inconclusive: 2.18% [at 42.5 µM]
CCCCC/C=C/C=C/C=O,Potency,[1],"inconclusive: 60.6 µM [activator, single point] and active: 61.1 µM"
same,Potency,[5],"inconclusive: 45.8 µM [cytotoxic, single point]"
same,Potency,[6],"inconclusive: 10.2 µM [cytotoxic, single point]"
same,Potency,[4],"inconclusive: 68.6 µM [rising, single point]"
same,Potency,[7],inactive
same,activation,[3],inconclusive: -0.796%
c1ccc2c(c1)CCc1ccccc1N2,Potency,[1],"inconclusive: 21.1 µM [activator, partial curve]"
same,Potency,[5],"inconclusive: 51.6 µM [cytotoxic, single point]"
same,Potency,[6],"inconclusive: 51.6 µM [cytotoxic, single point]"
same,Potency,[10],inconclusive: 20.5 µM [inhibitor]
same,Potency,[15],inactive
same,Potency,[7],inconclusive: 33.5 µM
same,"activity change, negative = inhibition",[12]; at 42.5 µM (top of the series),inconclusive: -31.4%
same,"activity change, negative = inhibition",[12]; at 92.4 µM (top of the series),inconclusive: -40.8%
same,Potency,[3],"inconclusive: 21.8 µM [inhibitor, partial curve] and inactive"
same,Potency,[13],"inconclusive: 0.614 µM [falling, single point]"
c1ccc(Sc2ccccc2)cc1,Potency,[1],active: 68.6 µM
same,Potency,[5],"inconclusive: 18.2 µM [cytotoxic, full curve, poor fit]"
same,Potency,[6],"inconclusive: 51.3 µM [rising, single point]"
same,Potency,[3],"inconclusive: 1.5 nM [falling, full curve, poor fit]"
Cc1cnccn1,Potency,[1],inactive
same,Potency,[14],inactive
same,activation,[3],inconclusive: 1.4%
O=C(O)C(=O)Cc1ccccc1,Potency,[1],"inconclusive: 68.6 µM [activator, single point]"
same,Potency,[5],"inconclusive: 45.8 µM [cytotoxic, single point]"
same,Potency,[6],inactive
same,Potency,[9],inactive
same,Potency,[16],inactive
CNC(=S)NN,Potency,[1],active: 6.11 µM
same,Potency,[5],"inconclusive: 16.2 µM [cytotoxic, full curve]"
same,Potency,[6],"inconclusive: 40.8 µM [rising, single point]"
same,Potency,[7],inconclusive: 68.6 µM [inhibitor]
same,Potency,[3],inactive

# Looked up one by one from the entries so far (five):
smiles,measurement,setting,value
c1ccc2c(c1)CCc1ccccc1N2,Potency,[13],"inconclusive: 0.614 µM [falling, single point]"
C[N+](C)(C)CCCCCCCCCC[N+](C)(C)C,Potency,[1],inactive
Oc1ccccc1-c1nnco1,Potency,[14],inactive
c1ccc(Sc2ccccc2)cc1,Potency,[3],"inconclusive: 1.5 nM [falling, full curve, poor fit]"
CCOc1ccc2c(c1)C(C)CC(C)(C)N2 (configuration not stated),Potency,[5],"inconclusive: 51.3 µM [cytotoxic, partial curve, poor fit]"
